The list shows only some results of the screen, not a fair sample: it is rich in T/C values a quarter to a half above the control, in often repeated tests (any T/C) and in doses without a T/C. Further doses and runs are listed elsewhere. T/C: endpoint of the treated group in % of that of the vehicle group. Some doses have a count of surviving animals in place of a T/C: the source holds a T/C of zero for them, seemingly a mark for toxic or unscored doses. Some survivor counts are full or nearly so, which does not show that the dose was tolerated: the source hardly ever lists a survival T/C far under the control, and the zero likely stands for such cases as well. Counts of survivors are from the toxicity check (mostly the fifth day) where no day follows; animals may have died later. Schedules are NCI's codes, taken here to give the interval after Q, in days (D) or hours (H), and the number of doses after X. Some schedules carry Z or #; the key to these is not given. Where survival is the endpoint, this PubChem deposit counts one and a half times the control or more as active, and values a quarter to a half above the control carry no call in these data; other NCI protocols may use other cut-offs. Counts like (3×) give the number of equal values in this list. Some entries were tested several times; their values stand side by side, smallest first.
Test system: L1210 leukemia ip in BDF1 mice, survival T/C
Test: NCI In Vivo Anticancer Drug Screen. Data for tumor model L1210 Leukemia (intraperitoneal) in B6D2F1 (BDF1) mice
Details: higher T/C = longer survival
[1] = T/C endpoint: mean survival time, dose: 6.0 mg/kg/injection, schedule: Q08HX027 (ip), vehicle: acetone
[2] = T/C endpoint: mean survival time, dose: 10.0 mg/kg/injection, schedule: Q12HX018 (ip), vehicle: acetone
[3] = T/C endpoint: mean survival time, dose: 50.0 mg/kg/injection, schedule: Q04DX003 (ip), vehicle: saline
[4] = T/C endpoint: mean survival time, dose: 100.0 mg/kg/injection, schedule: Q04DX003 (ip), vehicle: saline
[5] = T/C endpoint: mean survival time, dose: 200.0 mg/kg/injection, schedule: Q04DX003 (ip), vehicle: saline
[6] = T/C endpoint: mean survival time, dose: 400.0 mg/kg/injection, schedule: Q04DX003 (ip), vehicle: saline
[7] = T/C endpoint: mean survival time, dose: 400.0 mg/kg/injection, schedule: Q01DX009 (ip), vehicle: saline
[8] = T/C endpoint: mean survival time, dose: 400.0 mg/kg/injection, schedule: Q01DX009 (ip), vehicle: Klucel (hydroxypropylcellulose) (HPC)
[9] = T/C endpoint: mean survival time, dose: 100.0 mg/kg/injection, schedule: Q01DX001 (ip), vehicle: carboxymethylcellulose (CMC)
[10] = T/C endpoint: mean survival time, dose: 200.0 mg/kg/injection, schedule: Q01DX001 (ip), vehicle: carboxymethylcellulose (CMC)
[11] = T/C endpoint: mean survival time, dose: 400.0 mg/kg/injection, schedule: Q01DX001 (ip), vehicle: carboxymethylcellulose (CMC)
[12] = T/C endpoint: mean survival time, dose: 12.5 mg/kg/injection, schedule: Q04DX003 (ip), vehicle: saline
[13] = T/C endpoint: mean survival time, dose: 25.0 mg/kg/injection, schedule: Q04DX003 (ip), vehicle: saline
[14] = T/C endpoint: mean survival time, dose: 100.0 mg/kg/injection, schedule: Q01DX001 (ip), vehicle: saline
[15] = T/C endpoint: mean survival time, dose: 200.0 mg/kg/injection, schedule: Q01DX001 (ip), vehicle: saline
[16] = T/C endpoint: mean survival time, dose: 400.0 mg/kg/injection, schedule: Q01DX001 (ip), vehicle: saline

`O=C(O)CCCc1ccc(N(CCCl)CCCl)cc1` was tested, and the T/C (T/C endpoint: mean survival time, dose: 2.0 mg/kg/injection, schedule: Q08HX027 (ip), vehicle: acetone) was 131 % of control, the T/C (T/C endpoint: mean survival time, dose: 3.0 mg/kg/injection, schedule: Q08HX027 (ip), vehicle: acetone) was 134 and 145 % of control and the T/C (T/C endpoint: mean survival time, dose: 4.0 mg/kg/injection, schedule: Q12HX018 (ip), vehicle: acetone) was 136 and 137 % of control. The T/C (T/C endpoint: mean survival time, dose: 5.0 mg/kg/injection, schedule: Q08HX027 (ip), vehicle: acetone) was 148 % of control, the T/C [1] was 149 % of control and the survivor count [1] was 6 of 6. For the same compound, the T/C (T/C endpoint: mean survival time, dose: 6.0 mg/kg/injection, schedule: Q12HX018 (ip), vehicle: acetone) was 134 and 146 % of control, the T/C (T/C endpoint: mean survival time, dose: 8.0 mg/kg/injection, schedule: Q01DX009 (ip), vehicle: acetone) was 149 % of control (2×) and the T/C (T/C endpoint: mean survival time, dose: 8.0 mg/kg/injection, schedule: Q12HX018 (ip), vehicle: acetone) was 130 and 146 % of control. The T/C (T/C endpoint: mean survival time, dose: 8.0 mg/kg/injection, schedule: Q12HX018 (ip), vehicle: other) was 137 and 138 % of control, the T/C (T/C endpoint: mean survival time, dose: 10.0 mg/kg/injection, schedule: Q12HX018 (ip), vehicle: Klucel (hydroxypropylcellulose) (HPC)) was 129 % of control and the T/C [2] was 134 % of control. The survivor count [2] was 5 of 6, the T/C (T/C endpoint: mean survival time, dose: 10.0 mg/kg/injection, schedule: Q12HX018 (ip), vehicle: saline with Tween-80) was 135 % of control and the T/C (T/C endpoint: mean survival time, dose: 12.0 mg/kg/injection, schedule: Q01DX009 (ip), vehicle: acetone) was 138 % of control. The T/C (T/C endpoint: mean survival time, dose: 14.5 mg/kg/injection, schedule: Q01DX Z (ip), vehicle: carboxymethylcellulose (CMC)) was 131 % of control, the T/C (T/C endpoint: mean survival time, dose: 16.0 mg/kg/injection, schedule: Q01DX009 (ip), vehicle: saline with Tween-80) was 129 % of control and the survivor count (T/C endpoint: mean survival time, dose: 20.0 mg/kg/injection, schedule: Q01DX009 (ip), vehicle: acetone) was 2 of 6. The survivor count (T/C endpoint: mean survival time, dose: 50.0 mg/kg/injection, schedule: Q01DX Z (ip), vehicle: carboxymethylcellulose (CMC)) was 0 of 6, the survivor count (T/C endpoint: mean survival time, dose: 80.0 mg/kg/injection, schedule: Q01DX001 (ip), vehicle: carboxymethylcellulose (CMC)) was 0 of 6 and the survivor count (T/C endpoint: mean survival time, dose: 160.0 mg/kg/injection, schedule: Q01DX001 (ip), vehicle: carboxymethylcellulose (CMC)) was 0 of 6. The survivor count (T/C endpoint: mean survival time, dose: 320.0 mg/kg/injection, schedule: Q01DX001 (ip), vehicle: carboxymethylcellulose (CMC)) was 0 of 6 and the survivor count (T/C endpoint: median survival time, dose: 24.0 mg/kg/injection, schedule: Q01DX009 (ip), vehicle: saline) was 5 of 8.

`CCc1nc2c(OC)ccc(OC)c2nc1C` was tested, and the survivor count (T/C endpoint: mean survival time, dose: 300.0 mg/kg/injection, schedule: Q01DX001 (ip), vehicle: other) was 3 of 6.

In the case of `Cc1cccc2nc(-c3ccccc3)ccc12`, the survivor count [3] is reported as 2 of 6, the survivor count [4] is reported as 0 of 6 and the survivor count [5] is reported as 0 of 6. For the same compound, the survivor count [6] was 0 of 6.

With `O=C(Nc1ccccc1-c1ccc([N+](=O)[O-])cc1)c1cccc2ccccc12` the survivor count (T/C endpoint: mean survival time, dose: 100.0 mg/kg/injection, schedule: Q04DX003 (ip), vehicle: saline with Tween-80) was 6 of 6.

In the case of `C#CCN(C)Cc1ccccc1`, the survivor count [7] is reported as 0 of 6.

With `Nc1ncnc2c1ncn2C1CC(COP(=O)(O)O)C(O)C1O` (centres undefined) the survivor count (T/C endpoint: mean survival time, dose: 300.0 mg/kg/injection, schedule: Q01DX001 (ip), vehicle: saline) was 5 of 6.

For `N#CC(C#N)=Cc1ccc(C=C(C#N)C#N)cc1`, the survivor count (T/C endpoint: mean survival time, dose: 200.0 mg/kg/injection, schedule: Q01DX009 (ip), vehicle: Klucel (hydroxypropylcellulose) (HPC)) was 5 of 6 and the survivor count [8] was 5 of 6.

For `CCOC(=O)c1ccc(OC(=O)Nc2ccc(Cl)cc2OC)cc1`, the survivor count [7] was 4 of 6.

With `Nc1nc(N)c(C=Nc2ccc(Cl)c(Cl)c2)c(Nc2ccc(Cl)c(Cl)c2)n1` the survivor count (T/C endpoint: mean survival time, dose: 50.0 mg/kg/injection, schedule: Q01DX001 (ip), vehicle: carboxymethylcellulose (CMC)) was 4 of 4, the survivor count [9] was 4 of 4 and the survivor count [10] was 2 of 4. For the same compound, the survivor count [11] was 0 of 4.

`CC(=O)[O][Hg][CH2]C1(C)COC(C)([CH2][Hg][O]C(C)=O)CO1` (centres undefined) was tested, and the survivor count (T/C endpoint: mean survival time, dose: 40.0 mg/kg/injection, schedule: Q01DX001 (ip), vehicle: carboxymethylcellulose (CMC)) was 4 of 4, the survivor count [9] was 0 of 4 and the survivor count [10] was 0 of 4. For the same compound, the survivor count [11] was 0 of 4.

`CC1(C)CC(=O)C=C(OS(=O)(=O)C(F)(F)F)C1` was tested, and the survivor count (T/C endpoint: mean survival time, dose: 200.0 mg/kg/injection, schedule: Q01DX009 (ip), vehicle: DMSO) was 1 of 6.

For `O=P(O)(O)Cc1cccc2ccccc12`, the survivor count (T/C endpoint: mean survival time, dose: 400.0 mg/kg/injection, schedule: Q04DX003 (ip), vehicle: Klucel (hydroxypropylcellulose) (HPC)) was 3 of 3.

In the case of `O=C1C2C(C(=O)N1c1ccc(O)cc1)C1c3ccccc3C2C2CCCCN21` (centres undefined), the survivor count [5] is reported as 2 of 6 and the survivor count [6] is reported as 0 of 6.

In the case of `CC1(C)C2CCC13CC(=O)OC3C2` (centres undefined), the survivor count (T/C endpoint: mean survival time, dose: 6.25 mg/kg/injection, schedule: Q04DX003 (ip), vehicle: saline) is reported as 6 of 6, the survivor count [12] is reported as 6 of 6 and the survivor count (T/C endpoint: mean survival time, dose: 23.0 mg/kg/injection, schedule: Q01DX009 (ip), vehicle: acetone) is reported as 2 of 6. For the same compound, the survivor count [13] was 4 of 6, the survivor count (T/C endpoint: mean survival time, dose: 35.0 mg/kg/injection, schedule: Q01DX009 (ip), vehicle: acetone) was 0 of 6 and the survivor count [14] was 0 of 6. For the same compound, the survivor count [15] was 1 of 6 and the survivor count [16] was 0 of 6.

With `CCCCCCCCCCCCNC(=O)Nc1ccc(Cl)c(Cl)c1` the survivor count [16] was 6 of 6.

With `CCCCCC(C)(C)O` the survivor count [7] was 3 of 6.

With `ClC(Cl)(Cl)C/C=C\CBr` the survivor count (T/C endpoint: mean survival time, dose: 150.0 mg/kg/injection, schedule: Q01DX009 (ip), vehicle: acetone) was 2 of 6, the survivor count (T/C endpoint: mean survival time, dose: 200.0 mg/kg/injection, schedule: Q04DX003 (ip), vehicle: acetone) was 6 of 6 and the survivor count (T/C endpoint: mean survival time, dose: 225.0 mg/kg/injection, schedule: Q01DX009 (ip), vehicle: acetone) was 0 of 6. For the same compound, the survivor count (T/C endpoint: mean survival time, dose: 335.0 mg/kg/injection, schedule: Q01DX009 (ip), vehicle: acetone) was 0 of 6 and the survivor count (T/C endpoint: mean survival time, dose: 400.0 mg/kg/injection, schedule: Q01DX001 (ip), vehicle: acetone) was 0 of 6.

With `CCCCCCCCCCCCCCCCCC(=O)NCC#CCN1CCCC1` the survivor count [14] was 2 of 4 and the survivor count [15] was 2 of 4.

For `CC(=O)CC(=O)Nc1ccc(Cl)cc1`, the T/C (T/C endpoint: mean survival time, dose: 400.0 mg/kg/injection, schedule: Q04DX002 (ip), vehicle: Klucel (hydroxypropylcellulose) (HPC)) was 133 % of control.

For `O=C1C=CC(=O)C1`, the survivor count (T/C endpoint: mean survival time, dose: 9.0 mg/kg/injection, schedule: Q01DX009 (ip), vehicle: saline) was 0 of 6, the survivor count [12] was 0 of 6 and the survivor count [13] was 0 of 6. The survivor count [3] was 0 of 6, the survivor count [4] was 0 of 6 and the survivor count [5] was 0 of 6. For the same compound, the survivor count [6] was 0 of 6.

In the case of `CNC(=O)C(C)C1C(=O)/C(=C(O)/C=C/C(C)=C\C(C)C2OC3(C)OC(C=CC34CO4)C2C)C(=O)N1C1CCC(O)C(C)O1` (centres undefined), the survivor count [7] is reported as 6 of 6.

In the case of `Nc1nc(N)c2cc(S(=O)(=O)c3ccc4ccccc4c3)ccc2n1`, the survivor count [8] is reported as 6 of 6.

In the case of `O=C1OC(=O)C2C(c3ccccc3)C=CC(c3ccccc3)C12` (centres undefined), the survivor count [6] is reported as 1 of 6.
